Results deposited as PubChem BioAssay AID1259308 (NCATS, 2017)
Purpose: 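Genes whose loss raises luciferase production in HEK293 cells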 (primary screen). System: human HEK293 embryonic kidney cells stably expressing firefly luciferase (HEK-CMV-Luc2-Hygro). Reagent: single siRNA against human genes, 0.8 pmol siRNA per well. Time to read-out: 72 h. Measured: 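Reporter luminescence and viable-cell signal on separate replicate plates, given as percent of non-targeting control and median/MAD z-scores, plus per-cell luciferase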. Scale: total luciferase, z-score and total luciferase, % of control: higher = more reporter protein produced. Hit rule: 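An siRNA counts as active if its total luciferase robust z-score exceeds 3; genes with two or more such siRNAs out of three were retested with fresh siRNAs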. Meaning of the calls: active = raised luciferase; inactive = no rise.
The deposit covers about 59,000 reagents; shown is an unselected part. In the full data, about 1,510 (2.6%) got an active call. 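Calls use total luciferase alone and ignore viability, so some active siRNAs may act by altering cell number.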 Entries without a mark were called inactive. Reagents against one gene are numbered here. Further read-outs or replicates are left out here.

COPZ1 (coat protein complex I subunit zeta 1) #1 gave total luciferase, z-score 0.659; total luciferase, % of control 95.
Knock-down of COPZ1 (coat protein complex I subunit zeta 1) #2 gave: total luciferase, z-score 3.06 (active); total luciferase, % of control 143.
After knock-down of COPZ1 (coat protein complex I subunit zeta 1) #3 the results were total luciferase, z-score -1.78; total luciferase, % of control 46.6.
With knock-down of TASOR2 (transcription activation suppressor family member 2) #1, the screen gave total luciferase, z-score -0.0773; total luciferase, % of control 80.3.
With knock-down of TASOR2 (transcription activation suppressor family member 2) #2, the screen gave total luciferase, z-score 0.483; total luciferase, % of control 91.5.
TASOR2 (transcription activation suppressor family member 2) #3 scored total luciferase, z-score -1.06; total luciferase, % of control 60.9.

Records above whose target name begins with T or t:
TASOR2 (transcription activation suppressor family member 2) #1: total luciferase, z-score = -0.0773; total luciferase, % of control = 80.3
TASOR2 (transcription activation suppressor family member 2) #2: total luciferase, z-score = 0.483; total luciferase, % of control = 91.5
TASOR2 (transcription activation suppressor family member 2) #3: total luciferase, z-score = -1.06; total luciferase, % of control = 60.9

Next records:
After knock-down of SLC35D4 #1 the results were total luciferase, z-score 1.93; total luciferase, % of control 120.
After knock-down of SLC35D4 #2, the record shows total luciferase, z-score 0.279; total luciferase, % of control 87.4.
Depletion of SLC35D4 #3 came out at: total luciferase, z-score -1.04; total luciferase, % of control 61.2.
Against MRPL18 (mitochondrial ribosomal protein L18) #1, the entry reads total luciferase, z-score -0.902; total luciferase, % of control 63.9.
Against MRPL18 (mitochondrial ribosomal protein L18) #2 the deposit lists total luciferase, z-score -0.918; total luciferase, % of control 63.6.
For MRPL18 (mitochondrial ribosomal protein L18) #3, the entry reads total luciferase, z-score -0.755; total luciferase, % of control 66.9.
